The text below walks through data of patent publication US20160106708A1, “USE OF ANTIOXIDANTS FOR THE TREATMENT OF COGNITIVE AND BEHAVIOURAL DISORDERS IN INDIVIDUALS WITH FRAGILE X SYNDROME” (Servicio Andaluz de Salud, priority 2010, published 2016).

For experiment [1], the system named is FMR1-KO mice. Nature of the experiment: Raised cross-shaped maze (anxiety). The conditions noted are these: mouse, in vivo. An excerpt:
FIG. 2. Percentage permanence time in the open arm of the raised cross-shaped maze in a 5-minute period of time for the different treatments.
This test is used to determine the anxiety of the animal model, under baseline and treated conditions.

The subject of experiment [2] is FMR1-KO mice. Nature of the experiment: Oxidised glutathione (GSSG, % of GSH) in brain extract. In kind it is in vivo, mouse. The note with it: WT mice, vs the rest of the groups. An excerpt: FIG. 6. Percentage of GSSG with respect to GSH in mouse brain extract. FMR1-KO (n=8): black bars and WT (n=9): white bars. *p<0.05 FMR1-KO vs. WT. # p<0.05 FMR1-KO vs. FMR1-KO. † p<0.05 WT vs. WT.

Experiment [3] has as its system FMR1-KO mice. Description: Reduced glutathione (GSH) in brain extract. In kind it is in vivo, mouse. An excerpt:
FIG. 5. Concentration of GSH in mouse brain extract (μmol/g protein). FMR1-KO (n=8): black bars and WT (n=9): white bars. *p<0.05 FMR1-KO vs. WT. # p<0.05 FMR1-KO vs. FMR1-KO. † p<0.05 WT vs. WT.

For the molecule `CN1c2ccccc2C(NCCCCCCC(=O)O)c2ccc(Cl)cc2S1(=O)=O` (stereo not shown) [Tianeptine], in the experiment with FMR1-KO mice [1], the “Percentage permanence time in the open arm of the raised cross-shaped maze” value is listed as “greater (p<0.05)”. Besides, the “Percentage of GSSG with respect to GSH in brain extract” value with FMR1-KO mice [2] was “higher percentage”. The “GSH in brain extract” value is recorded as “no significant differences” in the experiment with FMR1-KO mice [3] (FMR1-KO mice, vs saline control) and “a decrease in the value of GSH” in the experiment on FMR1-KO mice [3] (WT mice, vs the rest of groups of treated animals).
